Reference: CN105367660A
These are yes or no findings as the source states them, for the method shown. Some binding calls cover weakened binding; strength is not graded here.

Sequences of proteins named here, by UniProt entry; tags and fusion partners are left off. Residues count along the entry.
UniProt P08637, residues 17-254: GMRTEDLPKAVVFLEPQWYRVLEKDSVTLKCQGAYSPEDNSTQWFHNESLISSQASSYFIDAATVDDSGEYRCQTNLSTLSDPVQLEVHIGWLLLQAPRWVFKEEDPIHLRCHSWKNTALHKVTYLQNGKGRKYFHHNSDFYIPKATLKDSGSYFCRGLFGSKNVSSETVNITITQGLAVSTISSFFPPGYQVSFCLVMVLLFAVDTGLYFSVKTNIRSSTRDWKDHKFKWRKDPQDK

Target: CD16A抗原 (UniProt P08637)
Assay: flow cytometry on CD16A-positive NK cells, 10 nM bispecific antibody, biotin goat anti-human IgG F(ab')2-specific antibody and PE-streptavidin

B1: 抗CD16A抗原和抗MUC1抗原的双特异性抗体 (bispecific antibody, not shown: a dimerising Fc or GST)
chain: DTVLTQSPASLAVSLGQRATISCKASQSVDFDGHSFMNWYQQKPGQPPKLLIYTTSNLESGIPASFSASGSGTDFTLNIHPVEEEDTATYYCQQSNEDPYTFGGGTKLEIKGGGGSQMQLVQSGAEVKKPGASVKVSCKASGYTFTGHYMHWVRQAPGQGLEWMGWIDPVTGGTKYAQNFQGWVTMTRDTSIRTAYMELSRLRSDDTAMYYCAREVTGDRGQFDKWGQGTLVTVASGGGGSGGGGSCPPCPGGGGSQSVLTQPPSVSVAPGKTARITCGGNNIGSKSVHWYQQKPGQAPVLVIYYDSDRPSGIPERFSGSNSGNTATLTISRVEAGDEADYYCQVWDSSSDWVFGGGTKLTVLGGGGSQVTLRESGPALVKPTQTLTLTCTFSGFSLSTSGMGVGWIRQPPGKALEWLAHIWWDDDKRYNPALKSRLTISKDTSKNQVVLTMTNMDPVDTATYYCARINPAWFAYWGQGTLVTVSS
binding: binds
